Measured values published in US20060029952.

Experiments:
Experiment in all cases: activity assay
[1] = molecular target: T7 gp2.5-F232L (Bacteriophage T7) (UniProt P03696); conditions: hot-start PCR, 1 ug; reduces primer-dimers; indirect evidence; purified recombinant protein
[2] = molecular target: T7 gp2.5-Δ21C (Bacteriophage T7) (UniProt P03696); conditions: hot-start PCR, 1 ug; reduces primer-dimers; indirect evidence; purified recombinant protein
[3] = molecular target: T7 gp2.5 SSB wild-type (Bacteriophage T7) (UniProt P03696); conditions: hot-start PCR; reduces primer-dimers, more specific product; effect rises up to 2 ug per 25 ul; indirect evidence of primer binding; purified recombinant protein

Measured: activity on this sequence

GAGGTTCCTACAGGCACCTGCCCAG / CAAAATCACCCCTCACAGTACTCTG [Numb forward and reverse PCR primers]
active: all assays above
